Reference: publication PMC7766365

Amino acid sequences for entries named in this document (tags omitted).
UniProt P0DTC4: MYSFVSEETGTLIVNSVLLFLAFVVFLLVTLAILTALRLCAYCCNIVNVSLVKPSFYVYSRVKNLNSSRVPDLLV
UniProt O00203: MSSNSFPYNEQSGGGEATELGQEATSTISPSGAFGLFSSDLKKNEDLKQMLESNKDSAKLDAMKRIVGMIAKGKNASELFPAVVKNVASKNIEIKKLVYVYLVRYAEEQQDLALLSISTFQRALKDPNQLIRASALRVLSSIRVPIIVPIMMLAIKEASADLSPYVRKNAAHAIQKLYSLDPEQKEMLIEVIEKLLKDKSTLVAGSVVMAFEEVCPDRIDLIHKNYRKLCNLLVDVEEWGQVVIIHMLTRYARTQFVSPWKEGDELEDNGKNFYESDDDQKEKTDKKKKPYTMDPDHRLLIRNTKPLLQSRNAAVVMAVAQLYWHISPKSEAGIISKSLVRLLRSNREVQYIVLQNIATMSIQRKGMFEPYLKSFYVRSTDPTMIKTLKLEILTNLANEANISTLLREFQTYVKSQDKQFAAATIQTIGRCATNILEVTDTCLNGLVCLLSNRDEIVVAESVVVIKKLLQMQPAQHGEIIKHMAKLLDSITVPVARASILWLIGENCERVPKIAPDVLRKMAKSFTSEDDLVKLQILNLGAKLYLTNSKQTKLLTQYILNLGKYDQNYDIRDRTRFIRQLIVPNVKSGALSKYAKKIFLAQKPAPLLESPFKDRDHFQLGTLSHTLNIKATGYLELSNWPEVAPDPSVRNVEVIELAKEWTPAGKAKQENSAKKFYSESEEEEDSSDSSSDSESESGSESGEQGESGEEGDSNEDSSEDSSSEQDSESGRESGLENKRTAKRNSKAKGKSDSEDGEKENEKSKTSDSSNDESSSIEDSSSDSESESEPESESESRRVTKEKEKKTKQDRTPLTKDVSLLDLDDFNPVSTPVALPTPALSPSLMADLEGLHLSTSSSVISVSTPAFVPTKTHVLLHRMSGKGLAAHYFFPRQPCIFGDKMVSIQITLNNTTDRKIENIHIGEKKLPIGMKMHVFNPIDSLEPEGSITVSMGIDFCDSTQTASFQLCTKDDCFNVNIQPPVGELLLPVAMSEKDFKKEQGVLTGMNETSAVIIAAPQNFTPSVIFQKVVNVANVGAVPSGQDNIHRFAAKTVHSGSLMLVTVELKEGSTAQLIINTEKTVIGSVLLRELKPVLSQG

Target: SARS-CoV-2 E (SARS-CoV-2) (UniProt P0DTC4)
Experiment: affinity purification with mass spectrometry

For AP3B1 (from UniProt O00203 1-1094), the binding was “binds”.

No constants are given. Whether binding was seen depends on the method and setting. Binding seen in cells or lysates may run through a third protein. A yes stands for co-enrichment or nearness to the bait. Other partners may have been found.
